The record followed here is US20220144957A1 (IMMUNECENT BIOTECHNOLOGY, published 2022).

Sequences of proteins named here, by UniProt entry; tags and fusion partners are left off. Residues count along the entry.
UniProt P17181, residues 28-557: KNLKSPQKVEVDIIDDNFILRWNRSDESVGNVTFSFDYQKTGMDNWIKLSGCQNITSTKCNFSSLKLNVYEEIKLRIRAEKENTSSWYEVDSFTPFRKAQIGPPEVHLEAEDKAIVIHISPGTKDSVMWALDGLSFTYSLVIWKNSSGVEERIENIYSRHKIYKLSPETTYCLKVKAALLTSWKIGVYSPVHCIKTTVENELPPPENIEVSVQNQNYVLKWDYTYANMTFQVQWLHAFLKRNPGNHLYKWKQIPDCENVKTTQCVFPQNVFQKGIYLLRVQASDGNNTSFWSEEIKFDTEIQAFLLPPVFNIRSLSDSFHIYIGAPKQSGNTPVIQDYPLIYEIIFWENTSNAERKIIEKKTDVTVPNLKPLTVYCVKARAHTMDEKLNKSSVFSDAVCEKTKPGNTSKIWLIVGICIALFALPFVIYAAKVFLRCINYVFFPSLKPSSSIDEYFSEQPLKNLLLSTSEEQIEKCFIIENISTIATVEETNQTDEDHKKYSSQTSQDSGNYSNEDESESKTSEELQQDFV

Results are given in words; binding and its absence hold for the method and conditions named. Some entries that bind do so weakly or less than the wild type.

The target of the experiment is human IFNAR1, full length (IFNAR1-aa1-557) (human) (UniProt P17181). The experiment is described as follows: flow cytometry on cells expressing human IFNAR1, MFI of PE.

B1: 7G4 Chimeric (antibody, V domains shown)
VH: QVQLQQPGAELVKPGAPVKLSCKASGYTFTSYWMNWVRQRPGRGLEWIGKIDPSDSETHFNQKFRDKATLTVDKSSTTAYIQLSSLTSEDSAVYYCARGGRISFDYDAALDYWGQGTSVTVSS
VL: DILMTQSSSSFSVSLGDRVTITCKSSEVIYNRLAWFQQKPGNAPRLLISGATTLESGFPSRFSGSGSGKDYTLSITSLQIEDVSTYYCQQYWNKPFTFGSGTKLEVK
B1: the binding entry was “binds”.
